Test results: paper PMC8274477
Results are given in words; binding and its absence hold for the method and conditions named. Some binding calls cover weakened binding; strength is not graded here.

Amino acid sequences for entries named in this document (tags omitted).
UniProt P31939: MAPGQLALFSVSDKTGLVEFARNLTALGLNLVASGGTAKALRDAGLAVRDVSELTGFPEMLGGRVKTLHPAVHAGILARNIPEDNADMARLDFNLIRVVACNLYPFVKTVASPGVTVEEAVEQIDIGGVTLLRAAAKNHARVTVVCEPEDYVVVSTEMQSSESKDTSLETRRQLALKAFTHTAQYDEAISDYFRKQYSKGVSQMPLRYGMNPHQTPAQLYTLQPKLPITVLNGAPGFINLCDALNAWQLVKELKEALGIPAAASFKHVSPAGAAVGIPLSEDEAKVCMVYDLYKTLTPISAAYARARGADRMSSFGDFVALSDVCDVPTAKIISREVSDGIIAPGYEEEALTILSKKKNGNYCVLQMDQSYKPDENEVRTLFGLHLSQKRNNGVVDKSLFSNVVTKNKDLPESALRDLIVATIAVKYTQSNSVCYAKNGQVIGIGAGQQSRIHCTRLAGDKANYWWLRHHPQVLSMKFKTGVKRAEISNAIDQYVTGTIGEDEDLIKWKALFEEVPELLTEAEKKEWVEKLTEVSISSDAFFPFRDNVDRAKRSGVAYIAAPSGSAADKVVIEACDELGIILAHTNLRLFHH
UniProt Q13310: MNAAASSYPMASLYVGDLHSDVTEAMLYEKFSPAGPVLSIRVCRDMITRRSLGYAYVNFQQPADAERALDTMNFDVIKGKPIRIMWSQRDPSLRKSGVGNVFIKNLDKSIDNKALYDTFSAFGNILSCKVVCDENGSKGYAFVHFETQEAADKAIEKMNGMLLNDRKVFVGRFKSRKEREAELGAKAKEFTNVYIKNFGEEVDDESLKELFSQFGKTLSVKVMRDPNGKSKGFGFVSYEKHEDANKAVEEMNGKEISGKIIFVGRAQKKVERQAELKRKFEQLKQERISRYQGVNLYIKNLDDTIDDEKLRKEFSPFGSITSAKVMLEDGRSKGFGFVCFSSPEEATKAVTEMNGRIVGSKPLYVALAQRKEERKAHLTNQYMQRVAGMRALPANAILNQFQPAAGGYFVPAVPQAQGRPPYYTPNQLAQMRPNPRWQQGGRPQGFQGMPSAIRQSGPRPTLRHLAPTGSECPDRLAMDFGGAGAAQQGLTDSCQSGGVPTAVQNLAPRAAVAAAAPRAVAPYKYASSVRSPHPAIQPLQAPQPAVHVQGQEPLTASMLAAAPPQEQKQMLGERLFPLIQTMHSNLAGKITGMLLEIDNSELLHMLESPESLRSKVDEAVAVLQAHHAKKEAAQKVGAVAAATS

Experiments:
Test in all cases: peptide or protein array; HuProt human proteome microarray; 5 ug/5 ml biotin-labelled LUBAC or OTULIN in solution, 1 h at room temperature; Cy5-streptavidin, scanned at 635 nm; BSA as negative control; hits: Z-score >= 3 and I_(Mean_Ratio) >= 1.4; both purified
[1] = biological target: T1, FOXP4 (human) (UniProt Q8IVH2)
T1 sequence: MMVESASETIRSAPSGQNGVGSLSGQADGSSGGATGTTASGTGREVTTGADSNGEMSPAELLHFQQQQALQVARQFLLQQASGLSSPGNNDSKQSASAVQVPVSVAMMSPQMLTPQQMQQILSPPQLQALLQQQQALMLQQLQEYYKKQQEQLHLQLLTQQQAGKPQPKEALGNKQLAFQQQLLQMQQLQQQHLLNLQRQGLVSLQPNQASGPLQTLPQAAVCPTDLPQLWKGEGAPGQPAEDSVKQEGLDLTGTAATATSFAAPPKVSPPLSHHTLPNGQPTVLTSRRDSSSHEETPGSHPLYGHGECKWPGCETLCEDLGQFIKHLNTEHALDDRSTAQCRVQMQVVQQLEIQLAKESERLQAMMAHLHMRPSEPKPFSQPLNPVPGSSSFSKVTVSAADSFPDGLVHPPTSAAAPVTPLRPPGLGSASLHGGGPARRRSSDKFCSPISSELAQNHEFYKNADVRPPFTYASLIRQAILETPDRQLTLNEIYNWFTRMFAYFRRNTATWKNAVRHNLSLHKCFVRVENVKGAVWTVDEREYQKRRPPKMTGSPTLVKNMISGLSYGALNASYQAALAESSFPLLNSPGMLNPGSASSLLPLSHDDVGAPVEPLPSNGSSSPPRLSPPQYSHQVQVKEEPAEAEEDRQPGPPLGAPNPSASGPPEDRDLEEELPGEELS

[2] = biological target: T2, DARS2 (human) (UniProt Q6PI48)
T2 sequence: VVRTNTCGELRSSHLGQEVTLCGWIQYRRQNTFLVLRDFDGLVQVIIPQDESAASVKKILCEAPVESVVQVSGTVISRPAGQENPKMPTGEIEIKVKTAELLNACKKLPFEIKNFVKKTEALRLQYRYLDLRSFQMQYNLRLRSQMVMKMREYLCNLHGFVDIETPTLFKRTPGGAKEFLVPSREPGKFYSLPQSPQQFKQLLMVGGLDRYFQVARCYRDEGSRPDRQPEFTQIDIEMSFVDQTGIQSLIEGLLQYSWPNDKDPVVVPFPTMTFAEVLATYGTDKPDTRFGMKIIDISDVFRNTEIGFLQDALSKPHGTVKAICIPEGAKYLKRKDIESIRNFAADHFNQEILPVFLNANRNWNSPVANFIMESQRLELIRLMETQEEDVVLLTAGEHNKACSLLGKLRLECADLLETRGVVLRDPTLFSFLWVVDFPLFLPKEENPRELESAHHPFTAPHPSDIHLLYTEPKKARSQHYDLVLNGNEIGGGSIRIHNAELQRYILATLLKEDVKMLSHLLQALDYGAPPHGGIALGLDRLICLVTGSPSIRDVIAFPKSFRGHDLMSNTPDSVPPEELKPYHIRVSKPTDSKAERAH

[3] = biological target: ATIC (human) (UniProt P31939)
[4] = biological target: T3, C17orf82 (human) (UniProt Q86X59)
T3 sequence: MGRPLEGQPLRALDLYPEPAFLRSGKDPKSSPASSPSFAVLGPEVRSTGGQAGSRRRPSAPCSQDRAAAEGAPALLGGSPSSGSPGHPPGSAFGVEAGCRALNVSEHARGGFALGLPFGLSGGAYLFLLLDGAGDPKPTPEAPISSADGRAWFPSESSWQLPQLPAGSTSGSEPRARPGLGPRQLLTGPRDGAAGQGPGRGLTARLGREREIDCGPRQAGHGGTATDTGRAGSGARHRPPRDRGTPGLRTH

[5] = biological target: PABPC4 (human) (UniProt Q13310)
[6] = biological target: T4, SORBS3 (human) (UniProt O60504)
T4 sequence: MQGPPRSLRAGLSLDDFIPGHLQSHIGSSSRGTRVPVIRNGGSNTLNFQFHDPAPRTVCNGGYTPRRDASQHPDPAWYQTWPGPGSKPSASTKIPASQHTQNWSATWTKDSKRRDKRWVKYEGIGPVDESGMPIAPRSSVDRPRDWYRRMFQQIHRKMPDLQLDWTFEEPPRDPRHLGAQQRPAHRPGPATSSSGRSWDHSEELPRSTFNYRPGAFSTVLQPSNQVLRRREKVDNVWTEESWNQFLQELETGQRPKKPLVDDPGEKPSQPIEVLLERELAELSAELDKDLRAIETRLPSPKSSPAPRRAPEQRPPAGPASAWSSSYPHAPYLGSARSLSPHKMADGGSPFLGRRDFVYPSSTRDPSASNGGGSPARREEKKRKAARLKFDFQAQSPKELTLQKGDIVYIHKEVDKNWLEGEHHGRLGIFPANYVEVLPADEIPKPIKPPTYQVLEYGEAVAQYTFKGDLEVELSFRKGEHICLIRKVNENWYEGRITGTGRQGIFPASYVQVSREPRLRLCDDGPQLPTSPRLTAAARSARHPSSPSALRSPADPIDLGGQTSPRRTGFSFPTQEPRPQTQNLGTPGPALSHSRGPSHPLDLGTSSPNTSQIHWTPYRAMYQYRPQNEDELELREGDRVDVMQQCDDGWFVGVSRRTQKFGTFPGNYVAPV

Measured: binding

linear ubiquitin chain assembly complex (LUBAC), purified as HIS-tagged HOIP with the subunit HOIL-1, biotin-labelled (from UniProt Q96EP0 1-1072; Q9BYM8 1-510)
binds: all assays above
